Measurements: article PMC12208539
Results are given in words; binding and its absence hold for the method and conditions named. Binding seen in cells or lysates may run through a third protein. Here binding means that the protein was enriched with, or labelled near, the bait; the list need not be complete. A no says only that the protein was not detected with the bait. Tags and fused reporters may be left off the sequences shown.

Amino acid sequences for entries named in this document (tags omitted).
UniProt Q14258: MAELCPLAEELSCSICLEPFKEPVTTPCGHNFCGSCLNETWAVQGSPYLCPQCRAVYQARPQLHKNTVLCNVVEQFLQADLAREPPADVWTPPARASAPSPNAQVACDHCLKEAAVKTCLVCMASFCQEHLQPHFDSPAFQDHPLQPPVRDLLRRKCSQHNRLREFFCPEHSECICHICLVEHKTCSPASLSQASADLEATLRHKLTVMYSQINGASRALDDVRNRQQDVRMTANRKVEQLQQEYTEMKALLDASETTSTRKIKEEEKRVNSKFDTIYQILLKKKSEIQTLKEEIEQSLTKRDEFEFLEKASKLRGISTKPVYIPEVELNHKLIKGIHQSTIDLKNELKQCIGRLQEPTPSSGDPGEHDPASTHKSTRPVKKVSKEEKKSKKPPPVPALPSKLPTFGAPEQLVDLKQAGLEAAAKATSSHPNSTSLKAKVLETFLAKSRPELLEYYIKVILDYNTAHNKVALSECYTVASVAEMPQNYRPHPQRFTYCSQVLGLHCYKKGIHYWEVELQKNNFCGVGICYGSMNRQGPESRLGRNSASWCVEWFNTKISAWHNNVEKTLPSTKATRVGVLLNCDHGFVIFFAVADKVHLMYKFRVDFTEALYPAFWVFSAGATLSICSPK

Molecular target: T1, BirA-fusion PLEK2 (UniProt Q9NYT0)
T1 sequence: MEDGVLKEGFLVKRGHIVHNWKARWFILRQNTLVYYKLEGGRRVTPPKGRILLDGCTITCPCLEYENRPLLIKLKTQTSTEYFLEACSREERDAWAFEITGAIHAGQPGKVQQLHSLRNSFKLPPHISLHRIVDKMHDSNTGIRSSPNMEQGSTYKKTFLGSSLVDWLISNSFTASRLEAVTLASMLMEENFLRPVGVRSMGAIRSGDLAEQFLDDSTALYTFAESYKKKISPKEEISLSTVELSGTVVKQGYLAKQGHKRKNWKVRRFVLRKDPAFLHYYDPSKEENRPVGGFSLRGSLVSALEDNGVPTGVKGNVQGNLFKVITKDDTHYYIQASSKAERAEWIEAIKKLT
Test: proximity labelling; biotin conjugation by BirA-fusion PLEK2 in HEK293T cells, streptavidin pulldown of the lysate, Western blotting

binding: no binding
Substance: TRIM25 in HEK293T lysate (from UniProt Q14258 1-630)
